Measured values: publication PMC6250738
Results are given in words; binding and its absence hold for the method and conditions named. Some entries that bind do so weakly or less than the wild type.

The chains behind the UniProt entries cited, without tags or fusion partners.
UniProt P17931: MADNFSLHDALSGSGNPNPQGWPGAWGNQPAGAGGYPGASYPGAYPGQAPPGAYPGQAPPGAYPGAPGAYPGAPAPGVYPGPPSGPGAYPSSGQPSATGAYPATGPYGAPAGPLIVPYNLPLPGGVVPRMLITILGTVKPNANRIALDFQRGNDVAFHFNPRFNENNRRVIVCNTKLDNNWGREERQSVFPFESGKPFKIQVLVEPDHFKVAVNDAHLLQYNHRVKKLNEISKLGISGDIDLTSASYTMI

Target: T1, asialofetuin (UniProt P12763)
T1 sequence (chain, glycoprotein decorated with β-galactosides (asialo form)): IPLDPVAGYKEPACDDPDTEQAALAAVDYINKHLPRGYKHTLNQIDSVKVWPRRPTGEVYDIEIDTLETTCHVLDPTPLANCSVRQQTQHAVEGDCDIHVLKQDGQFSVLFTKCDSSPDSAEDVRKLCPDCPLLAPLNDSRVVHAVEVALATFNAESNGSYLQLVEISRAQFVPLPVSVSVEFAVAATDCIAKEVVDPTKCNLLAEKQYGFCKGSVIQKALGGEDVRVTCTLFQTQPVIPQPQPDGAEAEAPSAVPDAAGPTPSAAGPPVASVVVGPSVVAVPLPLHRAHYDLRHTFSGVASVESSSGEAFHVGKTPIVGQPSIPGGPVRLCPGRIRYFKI
Assay: quantitative precipitation (light scattering, absorbance at 420 nm; DLS); G3 protein ([G3] = 0-10 µM) mixed 1:1 by volume with ASF (7 µM) in PBS; both purified

For “wild-type galectin-3 (from UniProt P17931 1-250)”, the binding was “binds”.
